Experimental data from publication PMC4912631, “Structure of the exportin Xpo4 in complex with RanGTP and the hypusine-containing translation factor eIF5A” (Nature Communications, 2016).

Biological target: RanQ69L (aa 5–180), GTP-bound, untagged ( (mammalian), UniProt P62826 5-180, Q69L)
Assay: SEC; complexes of Xpo4 variants, RanGTP and a 1.3-molar excess of hypusine-containing eIF5A, retrieved on anti-ZZ beads via tagged RanGTP, eluted by bdSENP1, then Superdex 200 16/60 in 15 mM Tris/HCl pH 7.7, 18 mM NaCl, 2 mM Mg(OAc)2, 2 mM DTT; peak fractions on SDS-PAGE
Conditions: both partners purified

B1: Xpo4 ΔLoopN&C (natural protein)
chain: MMAAALGPPEVIAQLENAAKVLMAPPSMVSNEQRQHAEHIFLSFRKSKSPFAVCRHILETSKVDYVLFQAATAIMEAVVREWVLLEKGSIESLRTFLLTYVLQRPNLQKYVREQILLAVAVIVKRGSLDKSIDCKSIFHEVSQLISSGNPTVQTLACSILTALLSEFSSSSKTSNIGLSMEFHGNCKRVFQEEDLRQIFMLTVGVLQEFSRRENLSAQMSSVFQRYLALANQVLSWNFLPPTESWREALLDSRVMELFFTVHRKIREDSDMAQDSLQCLAQLASLHGPIFPDEGSQVDYLAHFIEGLLNTINGIEIEDSEAVGISSIISNLITVFPRNVLTAIPSELFSSFVNCLTHLTCSFGRSAALEEVLDKDDMVYMEAYDKLLESWLTLVRDDKHFHKGFFTQHAVQVFNSYIQCHLAAPDGTRNLTANGVASREEEEISELQEDDRDQFSDQLASVGMLGRIAAEHCMPLLTSLLEERVTRLHGQLQRHQQQFLASPGSSTIDNKMLDDLYEDIHWLILVTGYLLADDTQGETPLIPPEIMEYSIKHSSEVDINTTLQILGSPGEKASSIPGYSRTDSVIRLLSAVLRVSEVESRAIRADLTHLLSPQMGKDIVWFLKRWAKTYLLVDEKLYDQISLPLSTAFGADTEGSQWIIGYLLQKVISNLSVWSSEQDLANDTVQLLVTLVERRERANLVIQCENWWNLAKQFASRSPPLNFLSSPVQRTLMKALVLGGFAHMDTETKQQYWTEVLQPLQQRFLRVINQENFQQMCQQEEVKQEITATLEALCGIAEATQIDNVAILFNFLMDFLNNCIGLMEVYKNTPETVNLIIEVFVEVAHKQICYLGESKAMHLYEACLTLLQVYSKNNLGRQRIDVTAEEEQYQDLLLIMELLTNLLSKEFIDFSVSAADVVLYGVNLILPLMSQDLLKFPTLCNQYYKLITFICEIFPEKIPQLPEDLFKSLMYSLELGMTSMSSEVCQLCLEALTPLAEQCAKAQETDSPLFLATRHFLKLVFDMLVLQKHNTEMTTAAGEAFYTLVCLHQAEYSELVETLLSSQQDPVIYQRLADAFNKLTASSTPPALDRKQKMAFLKSLEEFMANVGGLLCVK
notes: Xpo4 (exportin 4), mammalian, with loops 241-260 and 931-948 deleted; 1,113 residues printed; Crystallised form; 1,052 of 1,113 residues are modelled in PDB 5DLQ; also called ΔLoopN&C Xpo4 variant; Xpo4 loop deletion mutant; source: E. coli Top10 F', purified (Ni(II) chelate, bdSENP1 elution, Superdex 200, Mono Q); selenomethionine form from BL21; not shown: His14, N-terminal, cleaved; bdSUMO, …
**Q.** Does B1 bind?
**A.** Result: binds
